Values quoted from earlier work, collected in US4021563A, “Method of treating cardiac arrhythmia with γ-piperidino-butyrophenones” (priority 1975, dated 1977).

System: cardiac arrhythmia
Conditions: cited from earlier work

Q: For `CCN(CC)CC(=O)Nc1c(C)cccc1C` [Lidocaine, lidocaine], which “antiarrhythmic properties / activity of prior art compounds” value is on record?
A: Its value is “activity as antiarrhythmic agents”.

Q: What about the “toxic effects of prior art antiarrhythmic drugs” value of the same molecule?
A: Its value is “various toxic effects”.
